These results are taken from paper PMC5620257.

Amino acid sequences for entries named in this document (tags omitted). Residues count along the entry.
UniProt Q9NZQ7, residues 19-290: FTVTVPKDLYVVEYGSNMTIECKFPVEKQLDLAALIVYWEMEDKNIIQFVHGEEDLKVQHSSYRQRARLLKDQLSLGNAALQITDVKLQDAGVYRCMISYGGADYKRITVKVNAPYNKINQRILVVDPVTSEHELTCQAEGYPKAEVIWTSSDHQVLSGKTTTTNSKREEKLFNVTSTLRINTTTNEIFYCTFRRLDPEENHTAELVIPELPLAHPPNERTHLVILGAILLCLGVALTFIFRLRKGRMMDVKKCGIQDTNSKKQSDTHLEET

The target of test [1] is T1, FK506 binding protein 51 short (FKBP51s), spliced isoform 2 of FKBP51 (human (endogenous in D54)) (UniProt Q13451).
T1 sequence: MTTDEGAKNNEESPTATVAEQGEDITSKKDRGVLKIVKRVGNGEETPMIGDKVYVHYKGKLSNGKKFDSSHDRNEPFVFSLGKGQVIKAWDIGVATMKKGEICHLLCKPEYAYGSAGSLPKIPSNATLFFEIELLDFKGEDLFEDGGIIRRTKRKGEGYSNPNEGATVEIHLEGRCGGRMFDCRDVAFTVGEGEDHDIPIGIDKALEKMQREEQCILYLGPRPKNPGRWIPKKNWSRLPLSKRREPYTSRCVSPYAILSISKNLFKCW
Nature of the test: co-IP; endogenous proteins of the ER fraction of D54 glioblastoma cells; lysate pre-cleared, 1 ug of anti-PD-L1 or anti-FKBP51s overnight at 4 °C, Protein A-Agarose 2 h at 4 °C, washed in modified RIPA buffer, immunoblot for each protein.

Test [2] concerns the target Programmed Death Ligand 1 (PD-L1) (human (endogenous in D54)) (UniProt Q9NZQ7). The test is described as above.

These are yes or no findings as the source states them, for the method shown. In cells and extracts the contact can be indirect. Some entries that bind do so weakly or less than the wild type.

In the case of “Programmed Death Ligand 1 (PD-L1) (from UniProt Q9NZQ7 19-290)”, in test [1], the binding result was “binds”.

B1: FK506 binding protein 51 short (FKBP51s), spliced isoform 2 of FKBP51 (protein, UniProt Q13451-2 1-268)
chain: T1 sequence
B1: in test [2], the binding entry is reported as “binds”.
